# From patent publication US10912841B2 (PIERRE FABRE MEDICAMENT, priority 2014, dated 2021)
# Test: general procedure: solution-phase peptide synthesis; HATU/DIEA
# Conditions: for conjugation yield: conjugation step
# [1] = late stage modification step, 210 nm
substance,measurement,setting,value
"methyl (S)-2-((2R,3R)-3-((S)-1-((3R,4S,5S)-4-((S)-2-((S)-2-((2-aminoethyl)(methyl)amino)-3-methylbutanamido)-N,3-dimethylbutanamido)-3-methoxy-5-methylheptanoyl)pyrrolidin-2-yl)-3-methoxy-2-methylpropanamido)-3-phenylpropanoate",step yield,late stage modification step,10%
same,final HPLC purity,[1],91.0%
"(S)-2-((S)-2-((3-aminopropyl)(methyl)amino)-3-methylbutanamido)-N-((3R,4S,5S)-3-methoxy-1-((S)-2-((1R,2R)-1-methoxy-2-methyl-3-oxo-3-(((S)-2-phenyl-1-(thiazol-2-yl)ethyl)amino)propyl)pyrrolidin-1-yl)-5-methyl-1-oxoheptan-4-yl)-N,3-dimethylbutanamide, bis trifluoroacetic acid",step yield,late stage modification step,25%
same,final HPLC purity,"late stage modification step, 254 nm",93.7%
"((2R,3R)-3-((S)-1-((3R,4S,5S)-4-((S)-2-((S)-2-((4-((S)-2-((S)-2-(6-(2,5-dioxo-2,5-dihydro-1H-pyrrol-1-yl)hexanamido)-3-methylbutanamido)-5-ureidopentanamido)phenethyl)(methyl)amino)-3-methylbutanamido)-N,3-dimethylbutanamido)-3-methoxy-5-methylheptanoyl)pyrrolidin-2-yl)-3-methoxy-2-methylpropanoyl)-L-phenylalanine 2,2,2-trifluoroacetate",conjugation yield,,36%
"((2R,3R)-3-((S)-1-((3R,4S,5S)-4-((S)-2-((S)-2-((4-aminophenethyl)(methyl)amino)-3-methylbutanamido)-N,3-dimethylbutanamido)-3-methoxy-5-methylheptanoyl)pyrrolidin-2-yl)-3-methoxy-2-methylpropanoyl)-L-phenylalanine 2,2,2-trifluoroacetate",step yield,late stage modification step,66%
"methyl((2R,3R)-3-((S)-1-((3R,4S,5S)-4-((S)-2-((S)-2-((4-((S)-2-((S)-2-(6-(2,5-dioxo-2,5-dihydro-1H-pyrrol-1-yl)hexanamido)-3-methylbutanamido)-5-ureidopentanamido)phenethyl)(methyl)amino)-3-methylbutanamido)-N,3-dimethylbutanamido)-3-methoxy-5-methylheptanoyl)pyrrolidin-2-yl)-3-methoxy-2-methylpropanoyl)-L-phenylalaninate 2,2,2-trifluoroacetate",conjugation yield,,13%
"methyl ((2R,3R)-3-((S)-1-((3R,4S,5S)-4-((S)-2-((S)-2-((4-(6-(2,5-dioxo-2,5-dihydro-1H-pyrrol-1-yl)-N-methylhexanamido)phenethyl)(methyl)amino)-3-methylbutanamido)-N,3-dimethylbutanamido)-3-methoxy-5-methylheptanoyl)pyrrolidin-2-yl)-3-methoxy-2-methylpropanoyl)-L-phenylalaninate 2,2,2-trifluoroacetate",conjugation yield,,16%
"(S)-2-((2R,3R)-3-((S)-1-((7S,10S,13S,14R)-1-amino-13-((S)-sec-butyl)-7,10-diisopropyl-14-methoxy-6,12-dimethyl-8,11-dioxo-3-oxa-6,9,12-triazahexadecan-16-oyl)pyrrolidin-2-yl)-3-methoxy-2-methylpropanamido)-3-phenylpropanoic acid",step yield,late stage modification step,19%
same,final HPLC purity,[1],96.7%
"Methyl ((2R,3R)-3-((S)-1-((3R,4S,5S)-4-((S)-2-((S)-2-((4-aminophenethyl)(methyl)amino)-3-methylbutanamido)-N,3-dimethylbutanamido)-3-methoxy-5-methylheptanoyl)pyrrolidin-2-yl)-3-methoxy-2-methylpropanoyl)-L-phenylalaninate",step yield,coupling step,45%
"(S)—N-((3R,4S,5S)-3-methoxy-1-((S)-2-((1R,2R)-1-methoxy-2-methyl-3-oxo-3-(((S)-2-phenyl-1-(thiazol-2-yl)ethyl)amino)propyl)pyrrolidin-1-yl)-5-methyl-1-oxoheptan-4-yl)-N,3-dimethyl-2-((S)-3-methyl-2-(methyl(3-(methylamino)propyl)amino) butanamido)butanamide",purity (crude or final not stated),210 nm,88%
"(S)-N-((3R,4S,5S)-1-((S)-2- ((1R,2R)-3-(((1S,2R)-1- hydroxy-1-phenylpropan-2- yl)amino)-1-methoxy-2-methyl-3-oxopropyl)pyrrolidin-1-yl)-3-methoxy-5-methyl-1-oxoheptan-4-yl)-2-((S)-2-((2-(2-hydroxyethoxy)ethyl)(methyl)amino)-3-methylbutanamido)-N,3-dimethylbutanamide",final purity (method not given),"LC/MS/UV, 254 nm",95.5%
"(S)-N-((3R,4S,5S)-1-((S)-2- ((1R,2R)-3-(((1S,2R)-1- hydroxy-1-phenylpropan-2- yl)amino)-1-methoxy-2-methyl- 3-oxopropyl)pyrrolidin-1-yl)-3-methoxy-5-methyl-1-oxoheptan-4-yl)-2-((S)-2-((4-hydroxybenzyl)(methyl)amino)-3-methylbutanamido)-N,3-dimethylbutanamide",final purity (method not given),"LC/MS/UV, 254 nm",98.5%
"(S)-2-((S)-2-((4-aminobutyl)(methyl)amino)-3-methylbutanamido)-N-((3R,4S,5S)-3-methoxy-1-((S)-2-((1R,2R)-1-methoxy-2-methyl-3-oxo-3-(((S)-2-phenyl-1-(thiazol-2-yl)ethyl)amino)propyl)pyrrolidin-1-yl)-5-methyl-1-oxoheptan-4-yl)-N,3-dimethylbutanamide, bis trifluoroacetic acid",final purity (method not given),"LC/MS/UV, 254 nm, TFA salt",94.9%
"(S)-N-((3R,4S,5S)-1-((S)-2- ((1R,2R)-3-(((1S,2R)-1- hydroxy-1-phenylpropan-2- yl)amino)-1-methoxy-2-methyl-3-oxopropyl)pyrrolidin-1-yl)-3-methoxy-5-methyl-1-oxoheptan-4-yl)-N,3-dimethyl-2-((S)-3-methyl-2-(methyl(2-(methylamino)ethyl)amino)butanamido)butanamide",final purity (method not given),"LC/MS/UV, 254 nm, bis TFA salt",97.5%
"(S)-2-((S)-2-((2-(2-aminoethoxy)ethyl)(methyl)amino)-3-methylbutanamido)-N-((3R,4S,5S)-3-methoxy-1-((S)-2-((1R,2R)-1-methoxy-2-methyl-3-oxo-3-(((S)-2-phenyl-1-(thiazol-2-yl)ethyl)amino)propyl)pyrrolidin-1-yl)-5-methyl-1-oxoheptan-4-yl)-N,3-dimethylbutanamide",step yield,late stage modification step,23%
same,final HPLC purity,[1],89.7%
"(S)-2-((S)-2-(((2-aminopyridin-4-yl)methyl)(methyl)amino)-3-methylbutanamido)-N-((3R,4S,5S)-1-((S)-2-((1R,2R)-3-(((1S,2R)-1-hydroxy-1-phenylpropan-2-yl)amino)-1-methoxy-2-methyl-3-oxopropyl)pyrrolidin-1-yl)-3-methoxy-5-methyl-1-oxoheptan-4-y)-N,3-dimethylbutanamide, trifluoroacetic acid",step yield,late stage modification step,6%
same,final HPLC purity,[1],99.2%
"tert-butyl (3-((3S,6S,9S,10R)-9-((S)-sec-butyl)-10-(2-((S)-2-((1R,2R)-3-(((1S,2R)-1-hydroxy-1-phenylpropan-2-yl)amino)-1-methoxy-2-methyl-3-oxopropyl)pyrrolidin-1-yl)-2-oxoethyl)-3,6-diisopropyl-2,8-dimethyl-4,7-dioxo-11-oxa-25,8-triazadodecyl)phenyl)carbamate",step yield,coupling step,66%
"methyl (S)-2-((2R,3R)-3-((S)-1-((3R,4S,5S)-4-((S)—N,3-dimethyl-2-((S)-3-methyl-2-(methyl(2-(piperazin-1-yl)ethyl)amino)butanamido)butanamido)-3-methoxy-5-methylheptanoyl)pyrrolidin-2-yl)-3-methoxy-2-methylpropanamido)-3-phenylpropanoate",step yield,late stage modification step,19%
same,final HPLC purity,[1],100%
"((2R,3R)-3-((S)-1-((3R,4S,5S)-4-((S)-2-((S)-2-((4-(6-(2,5-dioxo-2,5-dihydro-1H-pyrrol-1-yl)-N-methylhexanamido)phenethyl)(methyl)amino)-3-methylbutanamido)-N,3-dimethylbutanamido)-3-methoxy-5-methylheptanoyl)pyrrolidin-2-yl)-3-methoxy-2-methylpropanoyl)-L-phenylalanine 2,2,2-trifluoroacetate",conjugation yield,,62%
"4-((S)-2-((S)-2-(6-(2,5-dioxo-2,5-dihydro-1H-pyrrol-1-yl)hexanamido)-3-methylbutanamido)-5-ureidopentanamido)benzyl(4-((3R,4S,7S,10S)-4-((S)-sec-butyl)-7,10-diisopropyl-3-(2-((S)-2-((1R,2R)-1-methoxy-2-methyl-3-oxo-3-(((S)-2-phenyl-1-(thiazol-2-yl)ethyl)amino)propyl)pyrrolidin-1-yl)-2-oxoethyl)-5,11-dimethyl-6,9-dioxo-2-oxa-5,8,11-triazatridecan-13-yl)phenyl)(methyl)carbamate 2,2,2-trifluoroacetate",conjugation yield,,54%
"(S)-2-((S)-2-((2-(2-hydroxyethoxy)ethyl)(methyl)amino)-3-methylbutanamido)-N-((3R,4S,5S)-3-methoxy-1-((S)-2-((1R,2R)-1-methoxy-2-methyl-3-oxo-3-(((S)-2-phenyl-1-(thiazol-2-yl)ethyl)amino)propyl)pyrrolidin-1-yl)-5-methyl-1-oxoheptan-4-yl)-N,3-dimethylbutanamide, trifluoroacetic acid",final purity (method not given),"late stage modification step, LC/MS/UV, 254 nm, TFA salt",94.5%
"(S)-2-((2R,3R)-3-((S)-1-((3R,4S,5S)-4-((S)-2-((S)-2-((3-aminobenzyl) (methyl)amino)-3-methylbutanamido)-N,3-dimethylbutanamido)-3-methoxy-5-methylheptanoyl)pyrrolidin-2-yl)-3-methoxy-2-methylpropanamido)-3-phenylpropanoic acid",step yield,late stage modification step,20%
"(S)-2-((2R,3R)-3-((S)-1-((3R,4S,5S)-4-((S)—N,3-dimethyl-2-((S)-3-methyl-2-(methyl(2-(piperazin-1-yl)ethyl)amino)butanamido)butanamido)-3-methoxy-5-methylheptanoyl)pyrrolidin-2-yl)-3-methoxy-2-methylpropanamido)-3-phenylpropanoic acid, tris trifluoroacetic acid",step yield,late stage modification step,33%
same,final purity (method not given),[1],100%
